The text below walks through data of publication doi:10.1101/2025.08.28.672006.

Chains of the proteins cited; added tags and fusions are not shown.
UniProt Q86UR5: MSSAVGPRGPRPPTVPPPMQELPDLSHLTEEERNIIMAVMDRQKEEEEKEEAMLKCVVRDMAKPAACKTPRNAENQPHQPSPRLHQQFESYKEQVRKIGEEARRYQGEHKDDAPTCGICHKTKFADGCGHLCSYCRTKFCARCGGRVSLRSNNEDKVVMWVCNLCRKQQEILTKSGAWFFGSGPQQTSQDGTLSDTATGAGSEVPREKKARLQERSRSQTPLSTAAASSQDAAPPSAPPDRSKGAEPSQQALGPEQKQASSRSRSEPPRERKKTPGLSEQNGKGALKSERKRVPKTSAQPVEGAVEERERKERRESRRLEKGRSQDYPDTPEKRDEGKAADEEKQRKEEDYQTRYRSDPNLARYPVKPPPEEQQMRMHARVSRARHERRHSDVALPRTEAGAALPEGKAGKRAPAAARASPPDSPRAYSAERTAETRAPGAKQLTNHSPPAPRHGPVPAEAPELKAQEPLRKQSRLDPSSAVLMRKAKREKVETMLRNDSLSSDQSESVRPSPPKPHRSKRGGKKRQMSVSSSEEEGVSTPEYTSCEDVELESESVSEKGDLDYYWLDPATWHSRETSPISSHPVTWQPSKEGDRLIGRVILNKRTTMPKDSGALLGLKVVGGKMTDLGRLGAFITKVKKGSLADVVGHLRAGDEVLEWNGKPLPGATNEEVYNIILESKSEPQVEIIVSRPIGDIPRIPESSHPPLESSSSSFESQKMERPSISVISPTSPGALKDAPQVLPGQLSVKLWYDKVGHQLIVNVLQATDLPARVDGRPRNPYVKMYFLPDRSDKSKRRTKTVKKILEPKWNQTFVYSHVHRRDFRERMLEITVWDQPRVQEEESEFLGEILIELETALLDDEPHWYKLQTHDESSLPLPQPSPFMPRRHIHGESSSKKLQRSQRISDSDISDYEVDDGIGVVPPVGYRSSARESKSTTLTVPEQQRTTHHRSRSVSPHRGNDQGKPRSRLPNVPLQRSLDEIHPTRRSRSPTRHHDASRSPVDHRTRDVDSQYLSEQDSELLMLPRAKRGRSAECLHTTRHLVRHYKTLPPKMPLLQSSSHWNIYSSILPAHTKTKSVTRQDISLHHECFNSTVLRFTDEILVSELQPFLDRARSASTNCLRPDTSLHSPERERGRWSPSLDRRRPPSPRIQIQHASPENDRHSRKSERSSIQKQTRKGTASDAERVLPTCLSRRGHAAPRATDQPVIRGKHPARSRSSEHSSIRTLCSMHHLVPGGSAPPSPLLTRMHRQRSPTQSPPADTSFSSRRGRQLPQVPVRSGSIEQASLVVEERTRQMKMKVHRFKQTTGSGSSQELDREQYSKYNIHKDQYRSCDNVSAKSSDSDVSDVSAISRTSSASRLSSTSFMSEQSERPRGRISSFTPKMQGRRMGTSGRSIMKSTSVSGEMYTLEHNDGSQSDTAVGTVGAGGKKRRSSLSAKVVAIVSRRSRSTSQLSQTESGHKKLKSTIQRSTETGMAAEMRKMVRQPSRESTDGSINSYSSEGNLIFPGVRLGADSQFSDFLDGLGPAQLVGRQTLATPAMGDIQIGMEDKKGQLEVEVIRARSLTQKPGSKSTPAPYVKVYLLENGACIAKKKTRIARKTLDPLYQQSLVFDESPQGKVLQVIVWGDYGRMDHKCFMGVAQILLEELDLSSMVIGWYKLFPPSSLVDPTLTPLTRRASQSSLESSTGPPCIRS

Changes are numbered by the printed parent chain. These are yes or no findings as the source states them, for the method shown. Binding seen in cells or lysates may run through a third protein. Some entries that bind do so weakly or less than the wild type. Sequences can lack the tags named with a protein.

In one assay the target is T1, HA-RAB3A T86E (UniProt P20336).
T1 sequence: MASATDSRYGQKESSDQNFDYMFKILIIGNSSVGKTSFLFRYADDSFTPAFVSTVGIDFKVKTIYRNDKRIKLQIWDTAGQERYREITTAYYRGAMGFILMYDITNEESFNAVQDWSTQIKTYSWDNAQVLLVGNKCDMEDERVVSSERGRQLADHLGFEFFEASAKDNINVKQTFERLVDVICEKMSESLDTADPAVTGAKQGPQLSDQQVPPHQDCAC
Description: co-IP; HEK-293 cells co-transfected with HA-RAB3 constructs and myc-flag-RIM1; lysate (20 mM Tris-HCl pH 7.5, 150 mM NaCl, 1 mM EDTA, 0.3% Triton-X100, 10% glycerol) on magnetic anti-HA beads, 1 h at 4 °C; Western blot. On the technique in general: In western blotting, separated proteins are transferred to a membrane and probed.

The next assay deals with T2, HA-RAB3A (UniProt P20336).
T2 sequence: T1 sequence with E86T
Described as above.

Consider “myc-flag-RIMS1 (from UniProt Q86UR5 1-1692)”, for which the binding result with HA-RAB3A T86E and with HA-RAB3A was “binds” in each case.
